Some of the results follow.
Compound: Cc1cc(ccc1-c1ccccc1)C(=O)N1CCCN(CC1)C(=O)CCl [compound 10]
Test: probe-labelled cysteine peptide fold change vs DMSO (competition) (log2 fold change); higher = less target engagement (more negative = stronger competition)
Details: THP-1, incubation time: 4 h
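Further: competitive profiling in live THP-1 cells: cysteine peptides tagged with an iodoacetamide desthiobiotin (IA-DTB) probe, intensity after compound treatment relative to DMSO-treated cells.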

Chains of the proteins cited; added tags and fusions are not shown. Lines headed by an entry give the natural chain unless they say otherwise; changes in a name come on top.
UniProt Q8IWJ2: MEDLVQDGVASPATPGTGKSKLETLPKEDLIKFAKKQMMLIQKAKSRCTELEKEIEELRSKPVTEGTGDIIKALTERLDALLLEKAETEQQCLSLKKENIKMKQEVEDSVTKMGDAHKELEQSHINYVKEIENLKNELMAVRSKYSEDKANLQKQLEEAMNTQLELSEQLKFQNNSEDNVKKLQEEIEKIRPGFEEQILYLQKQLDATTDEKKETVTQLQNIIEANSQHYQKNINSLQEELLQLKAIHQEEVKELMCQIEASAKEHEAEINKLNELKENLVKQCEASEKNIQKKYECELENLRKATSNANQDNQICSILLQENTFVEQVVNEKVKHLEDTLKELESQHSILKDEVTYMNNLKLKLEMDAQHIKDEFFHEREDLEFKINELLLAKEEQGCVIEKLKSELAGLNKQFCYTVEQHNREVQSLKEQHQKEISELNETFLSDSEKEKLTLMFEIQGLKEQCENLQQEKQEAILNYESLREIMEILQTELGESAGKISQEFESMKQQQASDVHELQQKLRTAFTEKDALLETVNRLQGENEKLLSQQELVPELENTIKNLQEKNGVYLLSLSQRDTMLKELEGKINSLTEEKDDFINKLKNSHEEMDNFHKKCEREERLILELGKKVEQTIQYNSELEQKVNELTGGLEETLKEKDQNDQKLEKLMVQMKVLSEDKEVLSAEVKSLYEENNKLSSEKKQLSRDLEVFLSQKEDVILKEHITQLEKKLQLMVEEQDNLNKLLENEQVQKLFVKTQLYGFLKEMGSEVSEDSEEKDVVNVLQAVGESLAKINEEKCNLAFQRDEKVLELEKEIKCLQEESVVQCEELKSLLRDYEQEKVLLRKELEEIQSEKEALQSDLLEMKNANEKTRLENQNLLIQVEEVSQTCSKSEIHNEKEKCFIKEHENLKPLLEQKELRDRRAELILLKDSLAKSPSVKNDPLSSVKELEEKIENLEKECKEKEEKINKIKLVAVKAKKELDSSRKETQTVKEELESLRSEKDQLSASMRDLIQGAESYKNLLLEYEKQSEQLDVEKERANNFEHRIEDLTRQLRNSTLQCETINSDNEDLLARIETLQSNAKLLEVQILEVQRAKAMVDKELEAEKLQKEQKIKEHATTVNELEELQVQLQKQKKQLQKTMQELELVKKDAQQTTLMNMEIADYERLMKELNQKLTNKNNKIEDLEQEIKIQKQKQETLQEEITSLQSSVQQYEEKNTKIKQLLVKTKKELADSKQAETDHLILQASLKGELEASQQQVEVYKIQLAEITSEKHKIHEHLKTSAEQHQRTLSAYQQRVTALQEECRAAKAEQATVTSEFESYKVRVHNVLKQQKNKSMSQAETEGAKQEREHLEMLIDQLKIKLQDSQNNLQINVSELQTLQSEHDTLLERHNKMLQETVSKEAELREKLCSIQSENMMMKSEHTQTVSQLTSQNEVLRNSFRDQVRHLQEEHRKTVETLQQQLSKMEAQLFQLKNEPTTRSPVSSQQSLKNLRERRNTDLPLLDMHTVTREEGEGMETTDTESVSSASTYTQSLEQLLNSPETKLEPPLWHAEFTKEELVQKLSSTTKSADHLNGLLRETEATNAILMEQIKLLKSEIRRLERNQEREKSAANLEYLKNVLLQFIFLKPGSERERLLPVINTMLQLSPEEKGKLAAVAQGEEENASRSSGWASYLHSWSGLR
UniProt P50440: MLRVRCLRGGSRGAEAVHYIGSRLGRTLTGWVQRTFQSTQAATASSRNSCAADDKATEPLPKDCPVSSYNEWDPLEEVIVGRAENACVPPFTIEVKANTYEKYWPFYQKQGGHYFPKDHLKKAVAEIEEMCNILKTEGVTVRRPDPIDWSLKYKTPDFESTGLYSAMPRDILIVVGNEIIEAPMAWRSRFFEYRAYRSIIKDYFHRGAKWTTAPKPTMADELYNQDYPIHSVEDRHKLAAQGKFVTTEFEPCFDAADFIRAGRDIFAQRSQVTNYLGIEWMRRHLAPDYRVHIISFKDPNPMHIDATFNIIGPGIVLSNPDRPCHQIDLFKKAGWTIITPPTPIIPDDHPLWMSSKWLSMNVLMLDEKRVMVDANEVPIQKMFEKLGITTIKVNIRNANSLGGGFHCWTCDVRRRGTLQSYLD
UniProt Q14691: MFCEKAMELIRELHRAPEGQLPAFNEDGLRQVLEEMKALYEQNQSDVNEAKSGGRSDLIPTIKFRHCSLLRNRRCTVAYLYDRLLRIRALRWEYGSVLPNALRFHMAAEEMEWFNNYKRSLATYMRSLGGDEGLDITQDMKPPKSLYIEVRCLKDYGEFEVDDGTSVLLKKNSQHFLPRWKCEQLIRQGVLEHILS
UniProt P04062: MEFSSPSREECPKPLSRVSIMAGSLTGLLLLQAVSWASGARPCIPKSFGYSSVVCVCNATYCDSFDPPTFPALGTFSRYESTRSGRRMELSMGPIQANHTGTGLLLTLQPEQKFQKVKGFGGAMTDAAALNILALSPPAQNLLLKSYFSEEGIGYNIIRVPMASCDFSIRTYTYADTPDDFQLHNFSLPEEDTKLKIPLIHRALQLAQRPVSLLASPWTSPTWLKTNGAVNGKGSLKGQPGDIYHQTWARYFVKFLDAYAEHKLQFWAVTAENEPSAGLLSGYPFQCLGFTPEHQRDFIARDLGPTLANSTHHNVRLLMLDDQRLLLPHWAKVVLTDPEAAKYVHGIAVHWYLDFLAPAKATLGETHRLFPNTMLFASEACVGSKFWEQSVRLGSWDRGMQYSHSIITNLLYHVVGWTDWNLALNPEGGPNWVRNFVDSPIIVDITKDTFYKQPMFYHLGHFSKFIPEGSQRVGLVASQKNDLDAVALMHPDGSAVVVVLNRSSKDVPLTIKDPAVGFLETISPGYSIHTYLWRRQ
UniProt P50395: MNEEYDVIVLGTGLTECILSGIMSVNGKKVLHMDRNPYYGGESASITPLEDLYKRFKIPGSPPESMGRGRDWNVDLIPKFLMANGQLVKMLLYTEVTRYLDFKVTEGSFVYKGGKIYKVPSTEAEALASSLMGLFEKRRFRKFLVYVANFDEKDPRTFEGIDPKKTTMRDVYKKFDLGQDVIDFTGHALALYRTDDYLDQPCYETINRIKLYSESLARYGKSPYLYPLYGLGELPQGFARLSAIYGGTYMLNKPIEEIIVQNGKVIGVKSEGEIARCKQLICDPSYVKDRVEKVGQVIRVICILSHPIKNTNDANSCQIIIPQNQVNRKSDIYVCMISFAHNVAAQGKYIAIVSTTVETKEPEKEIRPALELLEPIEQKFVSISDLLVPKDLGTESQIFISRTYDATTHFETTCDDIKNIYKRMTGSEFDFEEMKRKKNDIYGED
UniProt P41250: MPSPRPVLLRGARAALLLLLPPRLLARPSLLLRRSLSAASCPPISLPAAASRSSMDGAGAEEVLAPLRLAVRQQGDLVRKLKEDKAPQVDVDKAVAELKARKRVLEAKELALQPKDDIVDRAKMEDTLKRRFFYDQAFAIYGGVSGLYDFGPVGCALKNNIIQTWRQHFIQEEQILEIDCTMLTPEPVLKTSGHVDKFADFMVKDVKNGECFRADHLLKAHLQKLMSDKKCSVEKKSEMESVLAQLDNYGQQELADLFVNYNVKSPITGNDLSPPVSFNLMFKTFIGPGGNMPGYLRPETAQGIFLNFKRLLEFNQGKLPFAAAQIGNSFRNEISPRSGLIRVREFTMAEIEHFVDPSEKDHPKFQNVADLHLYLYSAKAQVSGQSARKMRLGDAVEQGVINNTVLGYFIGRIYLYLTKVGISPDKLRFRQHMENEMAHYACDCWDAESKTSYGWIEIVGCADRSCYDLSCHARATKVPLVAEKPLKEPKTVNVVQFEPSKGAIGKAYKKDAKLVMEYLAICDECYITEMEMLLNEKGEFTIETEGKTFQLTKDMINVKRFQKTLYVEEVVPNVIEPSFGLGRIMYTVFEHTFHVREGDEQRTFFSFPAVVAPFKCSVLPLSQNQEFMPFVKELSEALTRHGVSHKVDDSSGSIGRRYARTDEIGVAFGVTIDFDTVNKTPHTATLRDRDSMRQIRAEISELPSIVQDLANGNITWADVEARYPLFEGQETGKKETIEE
UniProt Q10472: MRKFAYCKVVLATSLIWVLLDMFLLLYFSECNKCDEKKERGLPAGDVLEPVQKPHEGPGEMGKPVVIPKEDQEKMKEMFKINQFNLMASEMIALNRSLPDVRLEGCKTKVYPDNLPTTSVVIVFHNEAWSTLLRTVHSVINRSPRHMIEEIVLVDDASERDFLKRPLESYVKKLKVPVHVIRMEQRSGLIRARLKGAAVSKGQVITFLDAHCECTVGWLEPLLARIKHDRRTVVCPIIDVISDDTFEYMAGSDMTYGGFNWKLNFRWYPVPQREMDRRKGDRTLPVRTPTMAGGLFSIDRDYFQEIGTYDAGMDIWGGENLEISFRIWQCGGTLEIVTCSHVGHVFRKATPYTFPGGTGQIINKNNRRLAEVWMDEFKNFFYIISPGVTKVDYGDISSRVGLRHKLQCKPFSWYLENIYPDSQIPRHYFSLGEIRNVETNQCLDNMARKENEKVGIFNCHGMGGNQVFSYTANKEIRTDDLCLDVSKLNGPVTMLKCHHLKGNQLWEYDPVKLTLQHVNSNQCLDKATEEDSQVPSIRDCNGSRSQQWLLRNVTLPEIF
UniProt Q969S9: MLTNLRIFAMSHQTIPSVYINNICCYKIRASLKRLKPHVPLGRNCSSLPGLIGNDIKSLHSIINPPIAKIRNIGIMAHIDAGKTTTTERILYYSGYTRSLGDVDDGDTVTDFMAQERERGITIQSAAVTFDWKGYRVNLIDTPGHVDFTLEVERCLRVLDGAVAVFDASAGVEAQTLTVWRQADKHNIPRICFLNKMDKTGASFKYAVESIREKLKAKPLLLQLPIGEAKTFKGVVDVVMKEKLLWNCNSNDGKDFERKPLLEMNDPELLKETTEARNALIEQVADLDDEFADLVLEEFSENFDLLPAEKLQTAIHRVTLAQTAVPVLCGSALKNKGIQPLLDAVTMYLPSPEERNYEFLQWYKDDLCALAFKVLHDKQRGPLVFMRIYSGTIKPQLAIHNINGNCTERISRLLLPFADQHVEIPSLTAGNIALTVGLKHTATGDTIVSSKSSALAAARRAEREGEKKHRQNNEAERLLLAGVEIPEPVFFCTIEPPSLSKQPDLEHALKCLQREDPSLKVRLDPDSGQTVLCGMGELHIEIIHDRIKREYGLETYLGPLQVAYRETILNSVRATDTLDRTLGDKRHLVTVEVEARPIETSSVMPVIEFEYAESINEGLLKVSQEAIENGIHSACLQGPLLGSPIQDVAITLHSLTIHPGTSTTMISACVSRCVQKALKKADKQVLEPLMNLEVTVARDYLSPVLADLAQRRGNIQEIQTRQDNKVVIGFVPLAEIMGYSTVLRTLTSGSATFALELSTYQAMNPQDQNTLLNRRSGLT
UniProt Q04446: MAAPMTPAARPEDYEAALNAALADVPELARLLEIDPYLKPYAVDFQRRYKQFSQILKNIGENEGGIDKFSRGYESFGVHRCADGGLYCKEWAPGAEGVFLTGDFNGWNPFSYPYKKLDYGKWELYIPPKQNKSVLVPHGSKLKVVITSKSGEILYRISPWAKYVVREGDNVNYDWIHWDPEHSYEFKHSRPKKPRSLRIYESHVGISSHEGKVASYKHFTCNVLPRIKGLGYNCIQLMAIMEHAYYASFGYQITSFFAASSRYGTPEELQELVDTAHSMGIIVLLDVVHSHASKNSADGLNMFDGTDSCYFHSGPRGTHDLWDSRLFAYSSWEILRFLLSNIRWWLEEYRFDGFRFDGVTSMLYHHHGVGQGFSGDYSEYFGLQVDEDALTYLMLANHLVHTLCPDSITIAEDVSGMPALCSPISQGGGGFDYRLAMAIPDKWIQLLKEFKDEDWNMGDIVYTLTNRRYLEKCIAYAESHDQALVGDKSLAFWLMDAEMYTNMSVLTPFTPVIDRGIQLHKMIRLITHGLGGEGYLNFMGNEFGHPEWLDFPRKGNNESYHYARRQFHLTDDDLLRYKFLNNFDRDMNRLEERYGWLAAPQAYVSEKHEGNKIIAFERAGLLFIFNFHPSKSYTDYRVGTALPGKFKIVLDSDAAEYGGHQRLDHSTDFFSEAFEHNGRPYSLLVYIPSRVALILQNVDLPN

Target | probe-labelled cysteine peptide fold change (10 µM) | probe-labelled cysteine peptide fold change (50 µM)
GCC2_Q8IWJ2_399_EEQGCVIEK (UniProt Q8IWJ2) | -0.079 | -0.146
GATM_P50440_131_KAVAEIEEMCNILK (UniProt P50440) | -0.0751 | -0.22
GIT2_Q14161_35_GTFLCDECCSVHR (UniProt Q14161) | 0.0947 | -0.152
GINS1_Q14691_75_CTVAYLYDR (UniProt Q14691) | -0.237 | 0.21
GIMAP8_Q8ND71_214_FQDCVNEAASQEGDKPQGPR (UniProt Q8ND71) | -0.292 | -0.319
GATM_P50440_407_NANSLGGGFHCWTCDVR (UniProt P50440) | 0.183 | 0.0175
GBA_P04062_381_LFPNTMLFASEACVGSK (UniProt P04062) | 0.215 | -0.0714
GK_P32189_421_DCGIPLSHLQVDGGMTSNK (UniProt P32189) | 0.0407 | 0.243
GEMIN4_P57678_382_QVVSELAECVR (UniProt P57678) | 0.0204 | -0.0601
GAS2L1_Q99501_276_CSSTAHRPPQPR (UniProt Q99501) | 0.164 | -0.148
GDI2_P50395_335_KSDIYVCMISFAHNVAAQGK (UniProt P50395) | 0.0466 | 0.149
GCC2_Q8IWJ2_92_AETEQQCLSLKK (UniProt Q8IWJ2) | 0.179 | -0.122
GARS_P41250_442+444_QHMENEMAHYACDCWDAESK (UniProt P41250) | 0.183 | -0.55
GATM_P50440_407+410_NANSLGGGFHCWTCDVR (UniProt P50440) | -0.0564 | -0.214
GAPVD1_Q14C86_70+71_LIITSAEASPAECCQHAK (UniProt Q14C86) | -0.395 | -0.988
GBF1_Q92538_613_KETARPSCEIVDGTR (UniProt Q92538) | -0.298 | -0.378
GALNT1_Q10472_214_GQVITFLDAHCECTVGWLEPLLAR (UniProt Q10472) | 0.104 | 0.157
GFM2_Q969S9_406_IYSGTIKPQLAIHNINGNCTER (UniProt Q969S9) | -0.332 | -0.12
GCN1_Q92616_147_LVEVQCLLLLEVLGGSHK (UniProt Q92616) | 0.136 | 0.205
GALNT6_Q8NCL4_165_SLGPDTRPPECVDQK (UniProt Q8NCL4) | 0.067 | 0.036
GIT1_Q9Y2X7_674_HDSFVPCSEK (UniProt Q9Y2X7) | 0.054 | -0.0553
GBE1_Q04446_221_HFTCNVLPR (UniProt Q04446) | 0.103 | 0.146

Shown as labelled records: part of the list above.
GBA_P04062_381_LFPNTMLFASEACVGSK (UniProt P04062)
  probe-labelled cysteine peptide fold change (10 µM): 0.215; probe-labelled cysteine peptide fold change (50 µM): -0.0714
GCC2_Q8IWJ2_92_AETEQQCLSLKK (UniProt Q8IWJ2)
  probe-labelled cysteine peptide fold change (10 µM): 0.179; probe-labelled cysteine peptide fold change (50 µM): -0.122

— the supplement of paper PMC12067093, “Discovery and optimisation of a covalent ligand for TRIM25 and its application to targeted protein ubiquitination” (Chemical Science, 2025)
